This is one part of the list.
Columns and labels:
Assay in all cases: log2 fold change, soluble protein after heating vs DMSO (PISA); higher = thermal stabilisation; K562 lysate, 10 uM; active = over 0.2 and 3.5 SD of the protein, either way, in both replicates (recomputed)
erlotinib = compound: C#Cc1cccc(Nc2ncnc3cc(OCCOC)c(OCCOC)cc23)c1 [erlotinib]
Method in brief: (§1)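 Log-two fold change in thermal stability relative to solvent controls is reported from duplicates. For each sample, crude K562 extract from dounce-homogenised pellets in PBS pH 7.4 with 1 mM MgCl2, at 1 mg/mL protein, was treated with 10 μM compound for 30 min. Aliquots heated for 3 min across 48°C-58°C were pooled, brought to 0.5% NP-40 at 4°C and cleared at 21,000xg for 90 min. The supernatant was quantified by TMTpro 16plex LC-MS/MS with channel sums equalised.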

Sequences of proteins named here, by UniProt entry; tags and fusion partners are left off. A change or cut given only in a name is not applied to a line headed by its entry.
UniProt Q9Y5X1: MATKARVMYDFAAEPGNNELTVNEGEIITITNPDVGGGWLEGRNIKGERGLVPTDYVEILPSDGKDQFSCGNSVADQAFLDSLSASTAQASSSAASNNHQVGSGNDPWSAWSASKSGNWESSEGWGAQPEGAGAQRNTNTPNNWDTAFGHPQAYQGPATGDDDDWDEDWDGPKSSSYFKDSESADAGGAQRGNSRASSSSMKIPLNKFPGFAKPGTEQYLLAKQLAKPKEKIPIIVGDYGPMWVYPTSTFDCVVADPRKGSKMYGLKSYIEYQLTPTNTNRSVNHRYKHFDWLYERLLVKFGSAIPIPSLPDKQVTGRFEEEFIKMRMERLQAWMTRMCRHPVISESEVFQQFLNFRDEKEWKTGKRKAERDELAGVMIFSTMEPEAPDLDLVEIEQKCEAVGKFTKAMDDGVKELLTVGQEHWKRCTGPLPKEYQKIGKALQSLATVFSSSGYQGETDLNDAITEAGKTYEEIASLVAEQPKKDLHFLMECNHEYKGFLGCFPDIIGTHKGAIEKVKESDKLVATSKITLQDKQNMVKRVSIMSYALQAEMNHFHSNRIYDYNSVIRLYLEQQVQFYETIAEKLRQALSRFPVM
UniProt Q99523, whole entry, looked up: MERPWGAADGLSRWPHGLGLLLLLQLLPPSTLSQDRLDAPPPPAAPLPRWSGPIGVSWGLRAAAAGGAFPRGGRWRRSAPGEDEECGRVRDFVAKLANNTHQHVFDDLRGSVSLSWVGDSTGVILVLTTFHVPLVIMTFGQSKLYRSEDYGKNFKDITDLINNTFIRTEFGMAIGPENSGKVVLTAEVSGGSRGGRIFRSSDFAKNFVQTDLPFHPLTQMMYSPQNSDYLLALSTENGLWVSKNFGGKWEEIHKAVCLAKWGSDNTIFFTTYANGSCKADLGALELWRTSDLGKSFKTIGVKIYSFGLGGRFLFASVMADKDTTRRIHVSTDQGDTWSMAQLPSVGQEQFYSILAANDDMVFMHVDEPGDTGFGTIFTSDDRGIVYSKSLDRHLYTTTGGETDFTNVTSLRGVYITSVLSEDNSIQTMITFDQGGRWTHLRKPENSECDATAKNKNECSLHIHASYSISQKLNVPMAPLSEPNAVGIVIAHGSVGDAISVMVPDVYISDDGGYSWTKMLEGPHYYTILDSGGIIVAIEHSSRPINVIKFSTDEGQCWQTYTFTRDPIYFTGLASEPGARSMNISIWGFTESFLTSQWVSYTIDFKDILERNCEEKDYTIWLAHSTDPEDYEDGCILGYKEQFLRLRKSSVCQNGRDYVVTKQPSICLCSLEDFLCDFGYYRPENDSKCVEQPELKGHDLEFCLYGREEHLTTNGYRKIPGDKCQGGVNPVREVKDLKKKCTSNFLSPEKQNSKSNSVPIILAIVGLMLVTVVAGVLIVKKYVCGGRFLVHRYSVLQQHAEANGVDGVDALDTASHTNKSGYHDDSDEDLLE
UniProt P55769: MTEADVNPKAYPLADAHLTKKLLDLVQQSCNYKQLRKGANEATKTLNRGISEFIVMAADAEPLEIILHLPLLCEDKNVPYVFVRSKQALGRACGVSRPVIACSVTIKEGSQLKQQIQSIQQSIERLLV
UniProt P62316, whole entry, looked up: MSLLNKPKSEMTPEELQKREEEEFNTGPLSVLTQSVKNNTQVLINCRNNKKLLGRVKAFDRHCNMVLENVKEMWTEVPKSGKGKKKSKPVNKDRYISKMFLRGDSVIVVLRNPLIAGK
UniProt Q13596, whole entry, looked up: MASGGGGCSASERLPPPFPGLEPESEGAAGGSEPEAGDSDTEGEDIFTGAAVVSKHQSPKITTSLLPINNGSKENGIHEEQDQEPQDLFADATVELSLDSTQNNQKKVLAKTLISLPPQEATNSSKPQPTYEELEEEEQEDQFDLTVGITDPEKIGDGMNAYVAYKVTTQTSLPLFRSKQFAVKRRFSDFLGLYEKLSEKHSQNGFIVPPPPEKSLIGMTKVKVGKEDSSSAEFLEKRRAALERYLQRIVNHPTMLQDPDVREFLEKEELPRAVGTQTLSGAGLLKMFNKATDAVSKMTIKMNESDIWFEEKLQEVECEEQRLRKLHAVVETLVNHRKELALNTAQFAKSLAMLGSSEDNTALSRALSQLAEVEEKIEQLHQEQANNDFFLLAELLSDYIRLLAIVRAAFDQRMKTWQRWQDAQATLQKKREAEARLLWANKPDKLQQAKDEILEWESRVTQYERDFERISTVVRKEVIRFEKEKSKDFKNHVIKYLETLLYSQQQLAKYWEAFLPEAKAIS
UniProt O75940: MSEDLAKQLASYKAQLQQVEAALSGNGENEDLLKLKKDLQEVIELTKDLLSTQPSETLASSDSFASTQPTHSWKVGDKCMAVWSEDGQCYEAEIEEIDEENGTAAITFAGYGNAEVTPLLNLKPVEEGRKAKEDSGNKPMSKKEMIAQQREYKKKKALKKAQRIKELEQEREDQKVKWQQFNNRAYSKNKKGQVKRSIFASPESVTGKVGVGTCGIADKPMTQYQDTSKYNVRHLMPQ
UniProt P52788: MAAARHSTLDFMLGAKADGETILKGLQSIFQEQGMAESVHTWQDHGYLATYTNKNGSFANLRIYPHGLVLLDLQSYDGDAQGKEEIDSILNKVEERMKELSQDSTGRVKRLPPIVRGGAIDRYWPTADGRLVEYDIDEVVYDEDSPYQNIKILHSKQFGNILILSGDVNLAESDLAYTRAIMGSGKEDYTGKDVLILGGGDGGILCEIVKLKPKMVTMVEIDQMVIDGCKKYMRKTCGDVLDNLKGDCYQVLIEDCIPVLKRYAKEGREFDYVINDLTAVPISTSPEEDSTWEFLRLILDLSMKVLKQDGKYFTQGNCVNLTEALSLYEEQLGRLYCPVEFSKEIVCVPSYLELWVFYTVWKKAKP
UniProt Q13573: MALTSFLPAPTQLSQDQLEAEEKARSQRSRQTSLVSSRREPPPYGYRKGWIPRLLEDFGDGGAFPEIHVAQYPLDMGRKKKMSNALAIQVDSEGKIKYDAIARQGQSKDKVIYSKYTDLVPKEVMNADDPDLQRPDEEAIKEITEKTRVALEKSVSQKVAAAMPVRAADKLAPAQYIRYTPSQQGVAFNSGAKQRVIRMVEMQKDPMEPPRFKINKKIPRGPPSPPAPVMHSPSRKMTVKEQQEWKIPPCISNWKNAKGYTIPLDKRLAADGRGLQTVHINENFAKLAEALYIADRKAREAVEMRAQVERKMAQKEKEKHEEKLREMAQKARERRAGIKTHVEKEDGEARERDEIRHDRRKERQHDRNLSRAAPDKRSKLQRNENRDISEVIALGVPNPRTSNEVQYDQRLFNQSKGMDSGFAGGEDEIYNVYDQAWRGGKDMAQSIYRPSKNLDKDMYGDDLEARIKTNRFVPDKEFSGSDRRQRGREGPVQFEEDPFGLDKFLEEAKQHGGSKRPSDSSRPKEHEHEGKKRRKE
UniProt P08047, whole entry, looked up: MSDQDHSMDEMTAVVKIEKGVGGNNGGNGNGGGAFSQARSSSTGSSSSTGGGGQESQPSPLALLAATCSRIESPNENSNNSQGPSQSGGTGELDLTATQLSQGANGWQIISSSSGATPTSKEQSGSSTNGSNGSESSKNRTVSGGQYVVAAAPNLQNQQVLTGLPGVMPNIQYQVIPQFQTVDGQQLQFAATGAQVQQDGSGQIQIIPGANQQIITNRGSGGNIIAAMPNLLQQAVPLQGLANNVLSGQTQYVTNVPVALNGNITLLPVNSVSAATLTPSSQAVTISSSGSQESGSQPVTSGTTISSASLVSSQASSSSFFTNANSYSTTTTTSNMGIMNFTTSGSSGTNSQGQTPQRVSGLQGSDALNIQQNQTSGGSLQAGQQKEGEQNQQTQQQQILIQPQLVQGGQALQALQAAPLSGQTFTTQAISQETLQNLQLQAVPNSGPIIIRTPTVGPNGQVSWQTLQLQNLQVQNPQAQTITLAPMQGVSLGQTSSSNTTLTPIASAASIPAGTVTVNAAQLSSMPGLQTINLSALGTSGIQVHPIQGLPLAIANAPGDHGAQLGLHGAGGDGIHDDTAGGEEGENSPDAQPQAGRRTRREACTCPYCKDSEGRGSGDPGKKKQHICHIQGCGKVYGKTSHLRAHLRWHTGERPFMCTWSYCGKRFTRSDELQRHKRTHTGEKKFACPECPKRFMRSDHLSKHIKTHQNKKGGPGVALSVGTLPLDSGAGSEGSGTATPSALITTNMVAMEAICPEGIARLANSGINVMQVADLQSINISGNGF
UniProt P62306, whole entry, looked up: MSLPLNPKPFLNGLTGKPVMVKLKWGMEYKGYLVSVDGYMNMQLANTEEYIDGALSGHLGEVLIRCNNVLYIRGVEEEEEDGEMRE
UniProt Q9H7B4: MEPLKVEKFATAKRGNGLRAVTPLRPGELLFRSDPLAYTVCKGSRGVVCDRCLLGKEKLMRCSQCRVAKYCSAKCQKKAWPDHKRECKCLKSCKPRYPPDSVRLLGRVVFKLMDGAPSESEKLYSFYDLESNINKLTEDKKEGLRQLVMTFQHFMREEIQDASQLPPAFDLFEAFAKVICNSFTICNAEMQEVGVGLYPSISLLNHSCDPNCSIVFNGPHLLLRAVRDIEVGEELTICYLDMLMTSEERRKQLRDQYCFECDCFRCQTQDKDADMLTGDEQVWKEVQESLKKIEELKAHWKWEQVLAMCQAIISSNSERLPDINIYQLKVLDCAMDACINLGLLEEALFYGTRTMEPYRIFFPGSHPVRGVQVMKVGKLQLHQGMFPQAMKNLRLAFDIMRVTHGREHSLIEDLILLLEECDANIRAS
UniProt O60749: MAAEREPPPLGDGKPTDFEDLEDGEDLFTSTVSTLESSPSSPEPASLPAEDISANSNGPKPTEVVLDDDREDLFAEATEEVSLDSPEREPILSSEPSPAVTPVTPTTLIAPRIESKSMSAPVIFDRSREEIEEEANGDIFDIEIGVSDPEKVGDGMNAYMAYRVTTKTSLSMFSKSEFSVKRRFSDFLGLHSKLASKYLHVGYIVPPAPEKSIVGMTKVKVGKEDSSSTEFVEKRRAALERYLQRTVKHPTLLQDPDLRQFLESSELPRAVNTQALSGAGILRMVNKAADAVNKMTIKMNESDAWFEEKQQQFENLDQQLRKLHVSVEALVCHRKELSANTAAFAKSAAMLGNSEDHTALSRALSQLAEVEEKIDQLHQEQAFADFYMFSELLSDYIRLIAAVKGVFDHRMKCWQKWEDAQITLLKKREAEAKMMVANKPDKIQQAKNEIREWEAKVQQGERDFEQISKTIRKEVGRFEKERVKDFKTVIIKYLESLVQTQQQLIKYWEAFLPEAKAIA
UniProt Q9NTJ3, whole entry, looked up: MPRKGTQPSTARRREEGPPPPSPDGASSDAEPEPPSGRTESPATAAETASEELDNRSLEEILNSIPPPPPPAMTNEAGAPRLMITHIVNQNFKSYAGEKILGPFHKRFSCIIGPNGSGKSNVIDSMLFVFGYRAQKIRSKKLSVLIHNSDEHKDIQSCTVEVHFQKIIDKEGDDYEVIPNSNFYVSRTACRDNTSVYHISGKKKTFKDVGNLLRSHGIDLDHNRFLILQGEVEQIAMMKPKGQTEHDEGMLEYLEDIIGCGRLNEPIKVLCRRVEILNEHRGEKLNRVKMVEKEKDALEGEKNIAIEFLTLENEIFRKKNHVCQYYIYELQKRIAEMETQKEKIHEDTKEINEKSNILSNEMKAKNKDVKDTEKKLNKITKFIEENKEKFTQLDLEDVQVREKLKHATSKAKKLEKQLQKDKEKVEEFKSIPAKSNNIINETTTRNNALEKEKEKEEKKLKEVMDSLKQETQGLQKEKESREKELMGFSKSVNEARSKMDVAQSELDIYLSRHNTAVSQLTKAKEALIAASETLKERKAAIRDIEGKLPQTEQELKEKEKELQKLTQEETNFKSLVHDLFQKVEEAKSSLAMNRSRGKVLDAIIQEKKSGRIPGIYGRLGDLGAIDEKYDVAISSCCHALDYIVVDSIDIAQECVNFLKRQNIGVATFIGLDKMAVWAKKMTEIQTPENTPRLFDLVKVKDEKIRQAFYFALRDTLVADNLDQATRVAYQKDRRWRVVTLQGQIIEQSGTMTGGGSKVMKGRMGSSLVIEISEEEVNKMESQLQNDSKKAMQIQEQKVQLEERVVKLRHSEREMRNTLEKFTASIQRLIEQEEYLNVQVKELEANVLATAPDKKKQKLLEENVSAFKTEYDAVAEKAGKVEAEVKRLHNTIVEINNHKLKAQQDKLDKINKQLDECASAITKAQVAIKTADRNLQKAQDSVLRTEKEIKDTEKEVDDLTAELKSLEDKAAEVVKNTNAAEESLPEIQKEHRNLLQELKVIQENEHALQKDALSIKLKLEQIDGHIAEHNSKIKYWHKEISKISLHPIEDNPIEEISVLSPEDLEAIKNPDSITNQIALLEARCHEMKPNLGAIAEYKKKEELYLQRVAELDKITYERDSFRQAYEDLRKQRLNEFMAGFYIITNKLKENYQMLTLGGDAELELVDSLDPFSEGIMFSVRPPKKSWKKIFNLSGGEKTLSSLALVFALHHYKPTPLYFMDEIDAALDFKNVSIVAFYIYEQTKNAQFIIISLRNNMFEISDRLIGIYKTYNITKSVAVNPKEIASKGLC

[1] = compound: C/C(=N\NC(=O)C1=CC(=CC=C1)S(=O)(=O)N2CCOCC2)/C3=C(C=CC(=C3)Cl)O
Method in brief: as §1

[2] = compound: C1=CC(=CC=C1C2=NC3=C(N2)C=C(C=C3)C(=O)N)OC4=CC=C(C=C4)Cl
Method in brief: as §1

[3] = compound: C1=CC2=C(C=CC(=C2)/C=C\3/C(=O)NC(=NCC4=CC=CS4)S3)N=C1
Method in brief: as §1

[4] = compound: C1=CC2=NC=CN=C2C=C1/C=C/3\C(=O)NC(=O)S3
Method in brief: as §1

[5] = compound: C1=CC=C(C=C1)C2=NC(=C(N2)C3=CC=NC=C3)C4=CC(=C(C=C4)Cl)O
Method in brief: as §1

[6] = compound: C1=CC=C2C(=C1)C3=NNC4=CC=CC(=C43)C2=O
Method in brief: as §1

[7] = compound: C1CCN(C1)C(=O)NC2=CC=CC(=C2)NC3=NC=C(C(=N3)NCCC4=CN=CN4)Br
Method in brief: as §1

[8] = compound: C1CN(CCC1(CC2=CC=C(C=C2)Cl)N)C3=NC=NC4=C3C=CN4
Method in brief: as §1

IRAK-1-4 Inhibitor I = compound: C1COCCN1CCN2C3=CC=CC=C3N=C2NC(=O)C4=CC(=CC=C4)[N+](=O)[O-] [IRAK-1-4 Inhibitor I]
Method in brief: as §1

ibrutinib = compound: C=CC(=O)N1CCC[C@@H](n2nc(-c3ccc(Oc4ccccc4)cc3)c3c(N)ncnc32)C1 [ibrutinib]
Method in brief: as §1

[9] = compound: CC(=O)c1cnc2ccc(-c3cc(Cl)c(O)c(Cl)c3)nc2c1N[C@H]1CC[C@H](CN(C)C)CC1
Method in brief: as §1

ralimetinib = compound: CC(C)(C)Cn1c(N)nc2ccc(-c3[nH]c(C(C)(C)C)nc3-c3ccc(F)cc3)nc21 [ralimetinib]
Method in brief: as §1

[10] = compound: CC(C)(O)CC(=O)NCCn1ccc2ncnc(Nc3ccc(Oc4cccc(C(F)(F)F)c4)c(Cl)c3)c21
Method in brief: as §1

[11] = compound: CC(C)C1=C2N=C(C=C(N2N=C1)NCC3=CC=CC=C3)NCCCCCCN
Method in brief: as §1

[12] = compound: CC1=C(C(CC(=O)N1)C2=CC=C(C=C2)C(F)(F)F)C(=O)NC3=C(C=C4C(=C3)C=NN4)F
Method in brief: as §1

[13] = compound: CC1=C(C2=C(C=C1)C(=O)C3=CC=CC=C3N2CCCN)C
Method in brief: as §1

[14] = compound: CC1=C(C=C(C=C1)NC(=O)C2=CC(=CC=C2)C(C)(C)C#N)NC3=CC4=C(C=C3)N=CN(C4=O)C
Method in brief: as §1

[15] = compound: CC1=C(C=C(C=C1)NC(=O)C2=CC(=CC=C2)N(C)C)NC(=O)C3=CC=C(C=C3)O
Method in brief: as §1

[16] = compound: CC1=CC=C(C=C1)SC2=C3C=C(SC3=CN=C2)C(=O)N
Method in brief: as §1

Measured: log2 fold change

SNX9 (UniProt Q9Y5X1)
inactive: erlotinib 0.018 | [1] 0.026 | [2] 0.021 | [3] -0.012 | [4] 0.01 | [5] 0.027 | [6] -0.024 | [7] 0.004 | [8] 0.006 | IRAK-1-4 Inhibitor I -0.008 | ibrutinib 0.02 | [9] -0.005 | ralimetinib 0.026 | [10] 0.042 | [11] -0.002 | [12] -0.01 | [13] 0.037 | [14] -0.023 | [15] 0.009 | [16] 0.018

SORT1 (UniProt Q99523)
inactive: erlotinib -0.008 | [1] -0.025 | [2] 0.041 | [3] 0.006 | [4] -0.01 | [5] -0.015 | [6] -0.016 | [7] -0.015 | [8] 0.018 | IRAK-1-4 Inhibitor I 0.028 | ibrutinib -0.008 | [9] -0.001 | ralimetinib -0.013 | [10] -0.014 | [11] -0.007 | [12] 0.006 | [13] -0.011 | [14] -0.001 | [15] 0.017 | [16] 0.006

SNU13 (UniProt P55769)
inactive: erlotinib 0.033 | [1] 0.068 | [2] 0.013 | [3] -0.051 | [4] -0.031 | [5] 0.02 | [6] 0 | [7] 0.013 | [8] 0.031 | IRAK-1-4 Inhibitor I -0.009 | ibrutinib -0.008 | [9] 0.003 | ralimetinib 0.001 | [10] -0.022 | [11] 0.003 | [12] -0.011 | [13] -0.031 | [14] 0 | [15] 0.02 | [16] -0.023

SNRPD2 (UniProt P62316)
inactive: erlotinib 0.019 | [1] 0.005 | [2] 0.058 | [3] -0.004 | [4] -0.018 | [5] -0.001 | [6] -0.035 | [7] 0.004 | [8] -0.008 | IRAK-1-4 Inhibitor I 0.004 | ibrutinib -0.028 | [9] -0.033 | ralimetinib -0.018 | [10] -0.041 | [11] 0.007 | [12] -0.011 | [13] 0.016 | [14] 0.01 | [15] 0.015 | [16] -0.005

SPAG9 (UniProt O60271)
inactive: erlotinib 0.014 | [1] -0.014 | [2] 0.037 | [3] 0 | [4] 0.003 | [5] -0.002 | [6] 0.006 | [7] -0.02 | [8] 0.004 | IRAK-1-4 Inhibitor I 0.007 | ibrutinib 0.008 | [9] -0.004 | ralimetinib -0.007 | [10] -0.029 | [11] -0.022 | [12] -0.016 | [13] -0.027 | [14] 0.023 | [15] 0.016 | [16] -0.015

SNX1 (UniProt Q13596)
inactive: erlotinib -0.013 | [1] 0.009 | [2] -0.005 | [3] -0.008 | [4] -0.013 | [5] -0.009 | [6] -0.039 | [7] -0.014 | [8] 0.01 | IRAK-1-4 Inhibitor I 0.002 | ibrutinib 0.001 | [9] -0.009 | ralimetinib -0.018 | [10] 0.005 | [11] -0.006 | [12] -0.003 | [13] 0.001 | [14] -0.035 | [15] 0.007 | [16] -0.001

2 entries drawn at random from those above, as already listed:
SNU13 (UniProt P55769)
inactive: erlotinib 0.033 | [1] 0.068 | [2] 0.013 | [3] -0.051 | [4] -0.031 | [5] 0.02 | [6] 0 | [7] 0.013 | [8] 0.031 | IRAK-1-4 Inhibitor I -0.009 | ibrutinib -0.008 | [9] 0.003 | ralimetinib 0.001 | [10] -0.022 | [11] 0.003 | [12] -0.011 | [13] -0.031 | [14] 0 | [15] 0.02 | [16] -0.023

SNX1 (UniProt Q13596)
inactive: erlotinib -0.013 | [1] 0.009 | [2] -0.005 | [3] -0.008 | [4] -0.013 | [5] -0.009 | [6] -0.039 | [7] -0.014 | [8] 0.01 | IRAK-1-4 Inhibitor I 0.002 | ibrutinib 0.001 | [9] -0.009 | ralimetinib -0.018 | [10] 0.005 | [11] -0.006 | [12] -0.003 | [13] 0.001 | [14] -0.035 | [15] 0.007 | [16] -0.001

More results:

SMNDC1 (UniProt O75940)
inactive: erlotinib -0.004 | [1] -0.008 | [2] 0.005 | [3] -0.002 | [4] -0.021 | [5] 0.035 | [6] 0.025 | [7] -0.04 | [8] -0.036 | IRAK-1-4 Inhibitor I 0.003 | ibrutinib -0.011 | [9] -0.012 | ralimetinib 0.026 | [10] -0.041 | [11] 0.035 | [12] 0.01 | [13] 0.023 | [14] 0.027 | [15] -0.011 | [16] -0.01

SMS (UniProt P52788)
inactive: erlotinib -0.003 | [1] 0.043 | [2] 0.004 | [3] 0.003 | [4] 0.02 | [5] 0.01 | [6] 0.054 | [7] 0.016 | [8] -0.008 | IRAK-1-4 Inhibitor I -0.036 | ibrutinib -0.008 | [9] 0.008 | ralimetinib 0.002 | [10] 0.002 | [11] 0.009 | [12] -0.033 | [13] 0.022 | [14] 0.014 | [15] 0.001 | [16] -0.005

SNW1 (UniProt Q13573)
inactive: erlotinib -0.038 | [1] -0.017 | [2] 0.026 | [3] -0.018 | [4] -0.033 | [5] -0.006 | [6] -0.004 | [7] 0.022 | [8] -0.021 | IRAK-1-4 Inhibitor I 0 | ibrutinib 0.01 | [9] 0.001 | ralimetinib -0.005 | [10] -0.007 | [11] 0.014 | [12] 0.007 | [13] -0.045 | [14] 0.016 | [15] -0.004 | [16] 0.015

SP1 (UniProt P08047)
inactive: erlotinib -0.012 | [1] -0.04 | [2] 0.053 | [3] 0.093 | [4] -0.047 | [5] 0.007 | [6] 0.04 | [7] 0.004 | [8] 0.013 | IRAK-1-4 Inhibitor I 0.034 | ibrutinib 0.04 | [9] 0.017 | ralimetinib -0.018 | [10] -0.049 | [11] -0.103 | [12] -0.013 | [13] 0.061 | [14] 0.22 | [15] 0.017 | [16] -0.027

SNRPF (UniProt P62306)
inactive: erlotinib -0.029 | [1] -0.07 | [2] 0.081 | [3] -0.017 | [4] -0.065 | [5] 0.028 | [6] -0.034 | [7] -0.018 | [8] 0.001 | IRAK-1-4 Inhibitor I 0.007 | ibrutinib -0.027 | [9] -0.013 | ralimetinib -0.024 | [10] -0.072 | [11] -0.004 | [12] 0.015 | [13] -0.137 | [14] 0.018 | [15] 0.028 | [16] -0.082

SMYD3 (UniProt Q9H7B4)
inactive: erlotinib 0.094 | [1] 0.104 | [2] 0.009 | [3] -0.036 | [4] 0.064 | [5] -0.021 | [6] -0.036 | [7] -0.022 | [8] -0.038 | IRAK-1-4 Inhibitor I 0.001 | ibrutinib -0.009 | [9] -0.002 | ralimetinib 0.032 | [10] -0.012 | [11] 0.034 | [12] -0.037 | [13] -0.028 | [14] 0.038 | [15] 0.036 | [16] -0.027

SMTN isoform 6 (UniProt P53814)
inactive: erlotinib -0.033 | [1] 0.081 | [2] -0.01 | [3] 0.035 | [4] 0.006 | [5] 0.021 | [6] 0.005 | [7] -0.018 | [8] 0.015 | IRAK-1-4 Inhibitor I 0.058 | ibrutinib -0.03 | [9] -0.072 | ralimetinib -0.02 | [10] -0.004 | [11] -0.009 | [12] 0.074 | [13] -0.013 | [14] 0.054 | [15] 0.05 | [16] 0.135

SMARCC2 (UniProt Q8TAQ2)
inactive: erlotinib 0.01 | [1] 0.026 | [2] -0.006 | [3] 0.008 | [4] -0.002 | [5] -0.01 | [6] -0.02 | [7] -0.019 | [8] 0.003 | IRAK-1-4 Inhibitor I 0.018 | ibrutinib 0.003 | [9] -0.006 | ralimetinib -0.011 | [10] 0.011 | [11] 0.008 | [12] -0.012 | [13] -0.022 | [14] -0.007 | [15] 0.014 | [16] 0.004

SNX2 isoform 2 (UniProt O60749)
inactive: erlotinib 0.132 | [1] -0.065 | [2] 0.059 | [3] 0.04 | [4] 0.01 | [5] 0 | [6] -0.114 | [7] -0.108 | [8] 0.245 | IRAK-1-4 Inhibitor I -0.043 | ibrutinib 0.025 | [9] -0.136 | ralimetinib -0.261 | [10] -0.331 | [11] -0.044 | [12] -0.126 | [13] -0.264 | [14] 0.311 | [15] -0.06 | [16] -0.046

SMC4 (UniProt Q9NTJ3)
inactive: erlotinib -0.006 | [1] -0.018 | [2] -0.007 | [3] 0 | [4] -0.026 | [5] 0 | [6] -0.046 | [7] -0.015 | [8] -0.014 | IRAK-1-4 Inhibitor I -0.009 | ibrutinib -0.002 | [9] -0.005 | ralimetinib -0.015 | [10] -0.012 | [11] -0.009 | [12] -0.006 | [13] 0.002 | [14] -0.016 | [15] 0.023 | [16] 0.013

Reference: the supplement of paper PMC10849652
